No constants are given. Whether binding was seen depends on the method and setting. For part of these data: Binding seen in cells or lysates may run through a third protein. Some entries that bind do so weakly or less than the wild type.
Assays:
[1] = molecular target: T1, tankyrase 2 (endogenous, HeLa) (human (endogenous in HeLa)) (UniProt Q9H2K2); assay: co-IP; HeLa cell extracts immunoprecipitated with anti-TNKS1, anti-TNKS2 or anti-FANCD2 antibody; Western blot probed with anti-FANCD2 or TNKS1 antibodies
T1 sequence: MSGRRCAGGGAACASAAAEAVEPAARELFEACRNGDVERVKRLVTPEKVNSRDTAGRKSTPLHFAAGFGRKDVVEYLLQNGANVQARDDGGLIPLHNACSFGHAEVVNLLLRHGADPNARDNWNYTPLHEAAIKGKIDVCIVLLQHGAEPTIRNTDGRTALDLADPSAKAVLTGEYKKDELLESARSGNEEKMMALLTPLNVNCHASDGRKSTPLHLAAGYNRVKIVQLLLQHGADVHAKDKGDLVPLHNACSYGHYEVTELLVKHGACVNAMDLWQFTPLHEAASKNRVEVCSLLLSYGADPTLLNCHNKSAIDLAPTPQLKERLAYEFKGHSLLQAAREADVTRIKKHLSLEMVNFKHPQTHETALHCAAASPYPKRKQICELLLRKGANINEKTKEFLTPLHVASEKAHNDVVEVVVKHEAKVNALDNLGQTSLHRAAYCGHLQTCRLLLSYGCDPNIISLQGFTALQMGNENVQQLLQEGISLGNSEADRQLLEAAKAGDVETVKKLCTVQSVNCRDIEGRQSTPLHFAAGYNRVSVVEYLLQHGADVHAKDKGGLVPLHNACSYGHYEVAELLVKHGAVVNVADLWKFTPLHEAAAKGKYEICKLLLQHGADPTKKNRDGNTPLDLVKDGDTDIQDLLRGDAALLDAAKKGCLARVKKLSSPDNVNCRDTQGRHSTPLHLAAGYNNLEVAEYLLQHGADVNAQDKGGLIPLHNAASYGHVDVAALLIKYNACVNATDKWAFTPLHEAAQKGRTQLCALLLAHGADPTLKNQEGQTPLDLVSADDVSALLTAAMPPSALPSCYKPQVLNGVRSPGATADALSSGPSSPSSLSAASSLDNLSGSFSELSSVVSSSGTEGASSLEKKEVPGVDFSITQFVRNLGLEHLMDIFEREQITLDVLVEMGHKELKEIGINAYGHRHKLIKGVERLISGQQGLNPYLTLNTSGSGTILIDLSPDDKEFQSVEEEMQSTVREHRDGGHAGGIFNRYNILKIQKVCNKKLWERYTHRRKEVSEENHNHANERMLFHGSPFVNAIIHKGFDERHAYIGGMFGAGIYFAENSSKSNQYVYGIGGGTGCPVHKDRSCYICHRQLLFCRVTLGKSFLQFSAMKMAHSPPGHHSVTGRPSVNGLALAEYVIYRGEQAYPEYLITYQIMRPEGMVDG

The chains behind the UniProt entries cited, without tags or fusion partners.
UniProt O95271: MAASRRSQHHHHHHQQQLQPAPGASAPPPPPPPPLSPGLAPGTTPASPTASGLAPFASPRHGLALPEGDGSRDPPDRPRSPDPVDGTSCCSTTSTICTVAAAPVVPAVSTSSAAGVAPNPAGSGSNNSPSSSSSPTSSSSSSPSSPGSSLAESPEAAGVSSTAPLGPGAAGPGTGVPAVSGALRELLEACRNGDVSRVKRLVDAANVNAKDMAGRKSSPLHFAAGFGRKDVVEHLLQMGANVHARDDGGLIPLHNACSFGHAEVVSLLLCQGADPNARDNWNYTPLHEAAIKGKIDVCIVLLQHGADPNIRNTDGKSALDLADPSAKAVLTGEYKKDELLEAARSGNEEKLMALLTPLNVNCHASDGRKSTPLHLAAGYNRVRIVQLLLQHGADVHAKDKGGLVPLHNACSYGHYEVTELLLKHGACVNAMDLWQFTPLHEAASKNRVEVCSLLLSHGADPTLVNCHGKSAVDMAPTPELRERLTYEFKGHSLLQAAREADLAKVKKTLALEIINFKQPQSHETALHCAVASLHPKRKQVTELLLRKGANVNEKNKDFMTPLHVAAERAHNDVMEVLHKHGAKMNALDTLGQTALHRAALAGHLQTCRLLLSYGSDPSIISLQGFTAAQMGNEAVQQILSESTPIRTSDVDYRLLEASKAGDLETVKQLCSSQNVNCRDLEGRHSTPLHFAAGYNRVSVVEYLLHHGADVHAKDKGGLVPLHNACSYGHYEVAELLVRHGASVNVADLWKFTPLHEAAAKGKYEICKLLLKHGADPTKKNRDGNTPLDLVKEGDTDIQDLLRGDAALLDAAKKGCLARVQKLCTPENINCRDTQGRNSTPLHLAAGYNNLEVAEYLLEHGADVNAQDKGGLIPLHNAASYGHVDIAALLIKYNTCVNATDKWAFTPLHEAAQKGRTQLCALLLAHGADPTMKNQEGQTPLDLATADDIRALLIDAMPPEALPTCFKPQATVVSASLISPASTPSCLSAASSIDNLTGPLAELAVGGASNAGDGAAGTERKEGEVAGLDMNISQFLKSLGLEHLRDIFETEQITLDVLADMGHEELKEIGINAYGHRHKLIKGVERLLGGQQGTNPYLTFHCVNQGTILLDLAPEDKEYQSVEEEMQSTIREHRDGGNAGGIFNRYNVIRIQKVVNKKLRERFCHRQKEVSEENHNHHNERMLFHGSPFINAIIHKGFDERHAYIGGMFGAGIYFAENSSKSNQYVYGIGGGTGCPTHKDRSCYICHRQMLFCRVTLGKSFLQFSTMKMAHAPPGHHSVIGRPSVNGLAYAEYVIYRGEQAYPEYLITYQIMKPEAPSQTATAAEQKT
UniProt Q9BXW9: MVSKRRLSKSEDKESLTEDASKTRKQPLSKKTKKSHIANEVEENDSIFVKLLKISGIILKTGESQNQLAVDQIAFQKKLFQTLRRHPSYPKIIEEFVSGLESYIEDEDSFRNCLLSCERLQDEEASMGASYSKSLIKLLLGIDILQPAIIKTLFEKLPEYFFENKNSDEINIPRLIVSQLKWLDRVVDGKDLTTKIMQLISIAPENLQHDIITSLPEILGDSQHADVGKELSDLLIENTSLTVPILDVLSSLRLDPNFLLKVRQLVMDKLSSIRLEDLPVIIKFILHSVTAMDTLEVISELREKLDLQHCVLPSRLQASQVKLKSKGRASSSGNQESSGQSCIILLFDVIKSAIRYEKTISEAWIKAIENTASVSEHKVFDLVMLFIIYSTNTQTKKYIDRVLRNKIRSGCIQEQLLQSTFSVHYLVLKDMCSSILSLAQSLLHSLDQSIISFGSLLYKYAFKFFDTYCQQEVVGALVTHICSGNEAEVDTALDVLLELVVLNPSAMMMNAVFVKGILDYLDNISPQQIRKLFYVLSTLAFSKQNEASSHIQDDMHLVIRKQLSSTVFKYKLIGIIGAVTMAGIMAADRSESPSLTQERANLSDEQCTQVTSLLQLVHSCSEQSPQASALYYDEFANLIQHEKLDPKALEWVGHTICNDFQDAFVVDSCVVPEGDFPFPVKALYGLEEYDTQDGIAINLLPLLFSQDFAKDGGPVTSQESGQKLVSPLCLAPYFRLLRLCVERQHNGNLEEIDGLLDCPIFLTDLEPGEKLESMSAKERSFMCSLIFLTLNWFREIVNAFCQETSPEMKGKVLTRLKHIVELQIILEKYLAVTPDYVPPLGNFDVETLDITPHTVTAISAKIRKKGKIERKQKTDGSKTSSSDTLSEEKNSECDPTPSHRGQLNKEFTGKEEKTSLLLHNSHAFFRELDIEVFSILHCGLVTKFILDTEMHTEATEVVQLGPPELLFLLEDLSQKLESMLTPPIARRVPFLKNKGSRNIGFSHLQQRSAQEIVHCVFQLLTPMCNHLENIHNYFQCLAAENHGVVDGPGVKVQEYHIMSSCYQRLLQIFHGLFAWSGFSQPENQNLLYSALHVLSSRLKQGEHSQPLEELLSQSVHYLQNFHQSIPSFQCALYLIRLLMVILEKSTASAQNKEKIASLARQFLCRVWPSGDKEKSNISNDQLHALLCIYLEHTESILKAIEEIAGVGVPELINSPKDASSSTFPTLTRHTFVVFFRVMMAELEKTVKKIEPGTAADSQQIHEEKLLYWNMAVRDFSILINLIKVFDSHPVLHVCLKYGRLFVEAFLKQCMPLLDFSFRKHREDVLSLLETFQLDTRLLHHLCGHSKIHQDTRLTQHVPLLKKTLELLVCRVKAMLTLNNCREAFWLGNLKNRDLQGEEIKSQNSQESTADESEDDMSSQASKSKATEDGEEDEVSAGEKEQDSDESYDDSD

[2] = molecular target: tankyrase 1 (endogenous) (human (endogenous in HeLa and in PD20 fibroblasts)) (UniProt O95271); assay: as above
[3] = molecular target: NH2-terminally (His)6-tagged human tankyrase 1 (human) (UniProt O95271); assay: pull-down; as a2, in the presence of single- or double-stranded 42 bp telomeric or nontelomeric DNA oligonucleotides; data not shown; both purified

Row | binding [1] | binding [2] | binding [3] | Substance
1 | no binding | binds | – | FANCD2 (endogenous, HeLa) (from UniProt Q9BXW9 1-1451)
2 | – | – | binds | Recombinant full-length wild-type FANCD2 (from UniProt Q9BXW9 1-1451)
